# Measured values: the supplement of paper PMC10849652
# Amino acid sequences for entries named in this document (tags omitted). A change or cut given only in a name is not applied to a line headed by its entry.
# UniProt Q8TDR0: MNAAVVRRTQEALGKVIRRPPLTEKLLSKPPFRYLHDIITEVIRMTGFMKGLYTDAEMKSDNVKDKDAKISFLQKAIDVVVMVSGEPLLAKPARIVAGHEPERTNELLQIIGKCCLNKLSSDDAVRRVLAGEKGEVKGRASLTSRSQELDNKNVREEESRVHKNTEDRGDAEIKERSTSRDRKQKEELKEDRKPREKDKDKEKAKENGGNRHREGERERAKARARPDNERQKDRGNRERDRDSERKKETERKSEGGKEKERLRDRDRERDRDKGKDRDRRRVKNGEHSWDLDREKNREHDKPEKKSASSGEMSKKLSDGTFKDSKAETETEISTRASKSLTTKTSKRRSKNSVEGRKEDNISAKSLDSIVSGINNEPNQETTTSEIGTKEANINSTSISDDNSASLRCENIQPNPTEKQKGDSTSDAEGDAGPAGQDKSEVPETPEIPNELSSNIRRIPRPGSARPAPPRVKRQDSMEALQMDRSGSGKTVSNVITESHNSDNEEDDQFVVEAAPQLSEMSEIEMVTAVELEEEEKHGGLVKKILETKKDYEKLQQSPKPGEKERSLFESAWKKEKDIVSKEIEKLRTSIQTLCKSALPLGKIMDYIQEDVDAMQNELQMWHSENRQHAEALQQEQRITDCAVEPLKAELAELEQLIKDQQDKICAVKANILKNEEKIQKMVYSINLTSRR
# UniProt Q14142: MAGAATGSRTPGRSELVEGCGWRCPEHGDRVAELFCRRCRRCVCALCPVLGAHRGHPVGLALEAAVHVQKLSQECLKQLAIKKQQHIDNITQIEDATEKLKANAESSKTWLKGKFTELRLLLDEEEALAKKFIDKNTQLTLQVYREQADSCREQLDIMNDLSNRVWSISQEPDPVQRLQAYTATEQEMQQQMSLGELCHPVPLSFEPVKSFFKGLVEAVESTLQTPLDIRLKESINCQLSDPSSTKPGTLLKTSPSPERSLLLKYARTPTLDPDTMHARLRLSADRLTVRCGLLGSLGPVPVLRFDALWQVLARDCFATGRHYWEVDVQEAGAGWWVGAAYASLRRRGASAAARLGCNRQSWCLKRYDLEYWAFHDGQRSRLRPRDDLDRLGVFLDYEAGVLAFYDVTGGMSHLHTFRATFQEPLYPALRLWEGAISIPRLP
# UniProt Q15025: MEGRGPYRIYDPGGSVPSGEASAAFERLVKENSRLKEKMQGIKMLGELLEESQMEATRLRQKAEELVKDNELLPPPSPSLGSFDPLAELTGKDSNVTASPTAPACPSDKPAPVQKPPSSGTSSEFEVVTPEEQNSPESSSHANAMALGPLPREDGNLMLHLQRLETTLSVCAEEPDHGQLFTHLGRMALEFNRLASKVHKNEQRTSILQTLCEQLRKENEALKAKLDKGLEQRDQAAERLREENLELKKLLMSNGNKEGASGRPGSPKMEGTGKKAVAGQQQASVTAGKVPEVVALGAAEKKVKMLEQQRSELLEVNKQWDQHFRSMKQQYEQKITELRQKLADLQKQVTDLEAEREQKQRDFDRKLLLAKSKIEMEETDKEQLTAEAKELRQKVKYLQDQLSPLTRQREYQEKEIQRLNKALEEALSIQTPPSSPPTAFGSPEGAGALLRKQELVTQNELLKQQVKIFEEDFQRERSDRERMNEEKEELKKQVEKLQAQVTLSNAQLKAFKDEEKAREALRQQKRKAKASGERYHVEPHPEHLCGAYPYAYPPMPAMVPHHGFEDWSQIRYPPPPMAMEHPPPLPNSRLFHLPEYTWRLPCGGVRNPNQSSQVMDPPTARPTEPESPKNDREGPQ
# UniProt P49815: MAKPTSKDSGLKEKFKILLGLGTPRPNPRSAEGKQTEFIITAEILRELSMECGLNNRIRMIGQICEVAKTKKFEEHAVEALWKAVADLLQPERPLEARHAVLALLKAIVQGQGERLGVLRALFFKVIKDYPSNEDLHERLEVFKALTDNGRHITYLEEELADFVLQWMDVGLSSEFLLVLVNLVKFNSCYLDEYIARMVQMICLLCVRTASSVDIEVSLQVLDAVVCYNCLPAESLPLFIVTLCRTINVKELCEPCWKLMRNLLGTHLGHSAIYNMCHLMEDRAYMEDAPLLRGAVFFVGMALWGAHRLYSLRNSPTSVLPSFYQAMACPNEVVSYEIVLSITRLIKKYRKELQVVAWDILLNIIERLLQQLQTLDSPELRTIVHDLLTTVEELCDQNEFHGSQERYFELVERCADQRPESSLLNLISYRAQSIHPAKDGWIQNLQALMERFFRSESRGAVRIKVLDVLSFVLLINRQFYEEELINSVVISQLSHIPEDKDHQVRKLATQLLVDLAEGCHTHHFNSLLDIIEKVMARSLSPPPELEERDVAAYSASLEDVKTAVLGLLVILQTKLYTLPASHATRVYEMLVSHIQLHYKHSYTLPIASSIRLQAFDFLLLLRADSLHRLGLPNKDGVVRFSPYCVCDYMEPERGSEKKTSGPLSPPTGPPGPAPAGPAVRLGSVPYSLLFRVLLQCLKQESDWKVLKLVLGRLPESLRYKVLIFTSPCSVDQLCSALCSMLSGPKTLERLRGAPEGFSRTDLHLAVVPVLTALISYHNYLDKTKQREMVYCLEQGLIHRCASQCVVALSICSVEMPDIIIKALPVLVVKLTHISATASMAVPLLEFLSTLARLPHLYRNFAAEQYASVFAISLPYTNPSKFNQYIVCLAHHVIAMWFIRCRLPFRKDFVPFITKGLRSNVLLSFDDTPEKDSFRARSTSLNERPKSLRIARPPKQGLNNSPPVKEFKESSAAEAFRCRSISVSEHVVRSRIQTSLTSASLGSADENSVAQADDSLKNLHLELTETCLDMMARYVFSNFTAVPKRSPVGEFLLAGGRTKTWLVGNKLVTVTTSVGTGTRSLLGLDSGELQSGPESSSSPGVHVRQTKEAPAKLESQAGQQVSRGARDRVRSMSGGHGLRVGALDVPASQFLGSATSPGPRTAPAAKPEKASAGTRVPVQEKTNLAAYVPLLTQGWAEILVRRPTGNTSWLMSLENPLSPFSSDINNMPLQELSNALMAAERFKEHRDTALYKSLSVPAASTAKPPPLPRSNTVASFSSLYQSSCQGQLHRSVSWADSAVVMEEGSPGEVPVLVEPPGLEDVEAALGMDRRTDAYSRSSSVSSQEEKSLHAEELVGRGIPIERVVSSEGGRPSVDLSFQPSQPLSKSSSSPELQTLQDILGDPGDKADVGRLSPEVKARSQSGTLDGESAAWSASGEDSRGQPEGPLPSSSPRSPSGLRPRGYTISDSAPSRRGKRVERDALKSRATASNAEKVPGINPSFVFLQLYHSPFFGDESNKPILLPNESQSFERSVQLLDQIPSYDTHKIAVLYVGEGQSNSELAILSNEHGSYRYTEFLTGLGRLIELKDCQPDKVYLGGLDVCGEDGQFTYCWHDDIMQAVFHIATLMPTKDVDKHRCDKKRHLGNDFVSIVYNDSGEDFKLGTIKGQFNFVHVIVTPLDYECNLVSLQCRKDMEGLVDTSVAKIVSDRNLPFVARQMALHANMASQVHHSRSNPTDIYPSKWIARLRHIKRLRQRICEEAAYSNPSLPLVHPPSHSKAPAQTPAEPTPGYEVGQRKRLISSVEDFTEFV
# UniProt Q9C037: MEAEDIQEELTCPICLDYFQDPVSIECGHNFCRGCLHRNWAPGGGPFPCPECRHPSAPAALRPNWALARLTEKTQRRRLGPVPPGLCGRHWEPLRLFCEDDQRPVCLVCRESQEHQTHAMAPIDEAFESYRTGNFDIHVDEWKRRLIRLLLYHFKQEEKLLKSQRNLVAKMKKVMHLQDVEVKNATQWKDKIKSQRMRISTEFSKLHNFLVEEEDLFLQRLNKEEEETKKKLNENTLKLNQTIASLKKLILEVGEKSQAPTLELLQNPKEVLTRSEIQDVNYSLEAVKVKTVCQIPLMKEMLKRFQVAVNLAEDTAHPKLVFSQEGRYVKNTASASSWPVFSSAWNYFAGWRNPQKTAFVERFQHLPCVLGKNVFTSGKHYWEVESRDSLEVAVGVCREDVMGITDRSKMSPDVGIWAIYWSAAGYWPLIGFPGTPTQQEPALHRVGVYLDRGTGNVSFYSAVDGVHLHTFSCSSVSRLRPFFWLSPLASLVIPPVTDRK
# UniProt P55327: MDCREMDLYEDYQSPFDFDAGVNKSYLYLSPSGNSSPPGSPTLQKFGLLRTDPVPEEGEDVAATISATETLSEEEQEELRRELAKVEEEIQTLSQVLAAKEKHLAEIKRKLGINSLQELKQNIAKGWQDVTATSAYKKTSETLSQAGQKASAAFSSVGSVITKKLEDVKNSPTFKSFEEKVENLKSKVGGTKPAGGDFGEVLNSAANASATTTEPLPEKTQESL
# UniProt Q9UPN9: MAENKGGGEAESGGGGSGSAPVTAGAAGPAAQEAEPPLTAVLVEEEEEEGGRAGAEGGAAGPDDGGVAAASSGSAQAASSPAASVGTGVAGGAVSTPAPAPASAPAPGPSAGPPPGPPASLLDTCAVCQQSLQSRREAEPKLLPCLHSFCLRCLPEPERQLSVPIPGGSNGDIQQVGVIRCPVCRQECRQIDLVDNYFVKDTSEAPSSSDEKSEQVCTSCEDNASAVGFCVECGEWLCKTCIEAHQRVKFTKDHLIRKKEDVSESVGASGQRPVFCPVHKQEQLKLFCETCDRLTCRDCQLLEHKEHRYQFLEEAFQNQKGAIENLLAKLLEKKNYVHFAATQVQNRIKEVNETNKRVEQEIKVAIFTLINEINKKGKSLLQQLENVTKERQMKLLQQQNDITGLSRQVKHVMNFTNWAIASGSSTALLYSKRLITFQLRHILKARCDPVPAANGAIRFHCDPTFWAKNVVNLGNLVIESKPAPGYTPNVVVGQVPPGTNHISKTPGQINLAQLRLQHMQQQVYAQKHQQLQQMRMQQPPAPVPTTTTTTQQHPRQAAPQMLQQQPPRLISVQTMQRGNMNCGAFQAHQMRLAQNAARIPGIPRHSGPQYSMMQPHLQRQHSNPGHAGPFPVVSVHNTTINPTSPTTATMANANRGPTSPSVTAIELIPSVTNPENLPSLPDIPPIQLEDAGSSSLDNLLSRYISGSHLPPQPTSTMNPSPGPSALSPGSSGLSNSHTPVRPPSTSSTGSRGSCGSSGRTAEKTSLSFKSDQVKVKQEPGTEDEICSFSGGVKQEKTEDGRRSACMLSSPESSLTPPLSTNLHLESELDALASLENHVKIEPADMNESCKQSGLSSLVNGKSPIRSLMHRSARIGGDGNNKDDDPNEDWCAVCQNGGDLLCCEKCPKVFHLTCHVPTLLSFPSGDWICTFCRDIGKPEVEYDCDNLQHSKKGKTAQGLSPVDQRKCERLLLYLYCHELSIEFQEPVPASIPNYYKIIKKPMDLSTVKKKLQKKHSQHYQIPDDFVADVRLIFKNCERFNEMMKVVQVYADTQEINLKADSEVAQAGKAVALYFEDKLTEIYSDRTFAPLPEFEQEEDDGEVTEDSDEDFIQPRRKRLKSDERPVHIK
# UniProt O43399: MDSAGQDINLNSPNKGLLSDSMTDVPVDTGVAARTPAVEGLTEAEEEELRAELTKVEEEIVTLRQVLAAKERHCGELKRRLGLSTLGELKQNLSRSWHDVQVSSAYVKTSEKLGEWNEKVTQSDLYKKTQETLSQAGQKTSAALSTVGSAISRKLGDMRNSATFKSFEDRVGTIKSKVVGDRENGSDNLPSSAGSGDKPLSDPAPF
# UniProt P14373: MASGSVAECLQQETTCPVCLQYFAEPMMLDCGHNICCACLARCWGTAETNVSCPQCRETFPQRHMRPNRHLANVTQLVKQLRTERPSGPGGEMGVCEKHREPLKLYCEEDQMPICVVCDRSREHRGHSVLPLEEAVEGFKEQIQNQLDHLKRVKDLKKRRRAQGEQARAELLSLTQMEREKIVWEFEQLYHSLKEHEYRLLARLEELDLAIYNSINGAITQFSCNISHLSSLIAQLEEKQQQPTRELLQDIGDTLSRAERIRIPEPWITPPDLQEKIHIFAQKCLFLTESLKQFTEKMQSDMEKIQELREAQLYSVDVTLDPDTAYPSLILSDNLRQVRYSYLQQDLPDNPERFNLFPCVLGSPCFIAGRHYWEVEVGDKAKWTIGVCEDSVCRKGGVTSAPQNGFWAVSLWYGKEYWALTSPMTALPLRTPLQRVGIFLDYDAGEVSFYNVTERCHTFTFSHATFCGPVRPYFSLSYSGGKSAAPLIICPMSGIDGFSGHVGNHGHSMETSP
# Some of the results follow.
# Key:
# Experiment in all cases: log2 fold change, soluble protein after heating vs DMSO (PISA); higher = thermal stabilisation; K562 cells, 10 uM, 30 min; active = over 0.2 and 3.5 SD of the protein, either way, in both replicates (recomputed)
# saracatinib = compound: CN1CCN(CCOc2cc(OC3CCOCC3)c3c(Nc4c(Cl)ccc5c4OCO5)ncnc3c2)CC1 [saracatinib]
# Procedure, shortened: (§1)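 K562 cells at 2×10^6 cells/mL were treated for 30 min with 10 μM compound, and aliquots were heated for 3 min over 48°C-58°C before pooling. Extraction used PBS with 0.5% NP-40 at 4°C, and soluble protein was the supernatant after 21,000xg for 90 min, measured by TMTpro 16plex LC-MS/MS with channel sums equalised. Thermal stability values, relative to control samples and from duplicates, are log2 fold changes.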
# alvocidib = compound: CN1CC[C@H](c2c(O)cc(O)c3c(=O)cc(-c4ccccc4Cl)oc23)[C@H](O)C1 [alvocidib]
# Procedure, shortened: as §1
# defactinib = compound: CNC(=O)c1ccc(Nc2ncc(C(F)(F)F)c(NCc3nccnc3N(C)S(C)(=O)=O)n2)cc1 [defactinib]
# Procedure, shortened: as §1
# [1] = compound: CNc1nc(-c2ccc3c(N)n[nH]c3c2)cc(N2C[C@@H](C(=O)NC3CCCCC3)CC[C@H]2C)n1
# Procedure, shortened: as §1
# [2] = compound: COC(=O)[C@H](CCSC)NC(=O)C1=C(C=C(C=C1)NC[C@H](CS)N)C2=CC=CC=C2
# Procedure, shortened: as §1
# [3] = compound: COC1=CC=C(C=C1)CN2C=CC3=C2C=C(C=C3)C(=O)NO
# Procedure, shortened: as §1
# zotarolimus = compound: CO[C@H]1C[C@@H]2CC[C@@H](C)[C@@](O)(O2)C(=O)C(=O)N2CCCC[C@H]2C(=O)O[C@H]([C@H](C)C[C@@H]2CC[C@H](n3cnnn3)[C@H](OC)C2)CC(=O)[C@H](C)/C=C(\C)[C@@H](O)[C@@H](OC)C(=O)[C@H](C)C[C@H](C)/C=C/C=C/C=C/1C [zotarolimus]
# Procedure, shortened: as §1
# idasanutlin = compound: COc1cc(C(=O)O)ccc1NC(=O)[C@@H]1N[C@@H](CC(C)(C)C)[C@](C#N)(c2ccc(Cl)cc2F)[C@H]1c1cccc(Cl)c1F [idasanutlin]
# Procedure, shortened: as §1
# gefitinib = compound: COc1cc2ncnc(Nc3ccc(F)c(Cl)c3)c2cc1OCCCN1CCOCC1 [gefitinib]
# Procedure, shortened: as §1
# Tubastatin A = compound: CN1CCc2c(c3ccccc3n2Cc2ccc(C(=O)NO)cc2)C1 [Tubastatin A]
# Procedure, shortened: as §1
# rucaparib = compound: CNCc1ccc(-c2[nH]c3cc(F)cc4c3c2CCNC4=O)cc1 [rucaparib]
# Procedure, shortened: as §1
# encorafenib = compound: COC(=O)N[C@@H](C)CNc1nccc(-c2cn(C(C)C)nc2-c2cc(Cl)cc(NS(C)(=O)=O)c2F)n1 [encorafenib]
# Procedure, shortened: as §1
# alisertib = compound: COc1cc(Nc2ncc3c(n2)-c2ccc(Cl)cc2C(c2c(F)cccc2OC)=NC3)ccc1C(=O)O [alisertib]
# Procedure, shortened: as §1
# [4] = compound: COc1cccc2cc(-c3nc([C@H]4CC[C@H](C(=O)O)CC4)n4ncnc(N)c34)[nH]c12
# Procedure, shortened: as §1
# pictilisib = compound: CS(=O)(=O)N1CCN(Cc2cc3nc(-c4cccc5[nH]ncc45)nc(N4CCOCC4)c3s2)CC1 [pictilisib]
# Procedure, shortened: as §1
# sotrastaurin = compound: CN1CCN(c2nc(C3=C(c4c[nH]c5ccccc45)C(=O)NC3=O)c3ccccc3n2)CC1 [sotrastaurin]
# Procedure, shortened: as §1
# [5] = compound: CNC(=O)C1=CC=CC=C1NC2=NC(=NC=C2Cl)NC3=C(C=C(C=C3)N4CCOCC4)OC
# Procedure, shortened: as §1
# filanesib = compound: CON(C)C(=O)N1N=C(c2cc(F)ccc2F)S[C@@]1(CCCN)c1ccccc1 [filanesib]
# Procedure, shortened: as §1
# [6] = compound: COc1cc2nc(-c3cc(F)ccc3O)nc(N[C@@H]3CNC[C@H]3C(C)(C)O)c2cc1OC
# Procedure, shortened: as §1
# lapatinib = compound: CS(=O)(=O)CCNCc1ccc(-c2ccc3ncnc(Nc4ccc(OCc5cccc(F)c5)c(Cl)c4)c3c2)o1 [lapatinib]
# Procedure, shortened: as §1
target,measurement,setting,value
TRAF3IP1 (UniProt Q8TDR0),log2 fold change,saracatinib,inactive: -0.168
same,log2 fold change,alvocidib,inactive: 0.145
same,log2 fold change,defactinib,inactive: -0.022
same,log2 fold change,[1],inactive: 0.074
same,log2 fold change,[2],inactive: -0.108
same,log2 fold change,[3],inactive: -0.214
same,log2 fold change,zotarolimus,inactive: -0.218
same,log2 fold change,idasanutlin,inactive: -0.032
TRIM14 (UniProt Q14142),log2 fold change,gefitinib,inactive: 0.193
TRIP12 isoform 3 (UniProt Q14669),log2 fold change,saracatinib,inactive: -0.294
same,log2 fold change,Tubastatin A,inactive: -0.021
same,log2 fold change,defactinib,inactive: 0.108
same,log2 fold change,rucaparib,inactive: -0.216
same,log2 fold change,[1],inactive: 0.04
same,log2 fold change,encorafenib,inactive: 0.033
same,log2 fold change,[2],inactive: 0.11
same,log2 fold change,[3],inactive: -0.082
same,log2 fold change,alisertib,inactive: 0.008
same,log2 fold change,gefitinib,inactive: 0.018
same,log2 fold change,[4],inactive: 0.163
same,log2 fold change,pictilisib,inactive: -0.087
TNIP1 (UniProt Q15025),log2 fold change,sotrastaurin,inactive: 0.021
same,log2 fold change,Tubastatin A,inactive: 0.025
same,log2 fold change,[5],inactive: -0.181
same,log2 fold change,rucaparib,inactive: 0.207
same,log2 fold change,encorafenib,inactive: -0.132
same,log2 fold change,filanesib,inactive: 0.023
same,log2 fold change,alisertib,inactive: -0.035
same,log2 fold change,[6],inactive: 0.264
same,log2 fold change,[4],inactive: 0.056
same,log2 fold change,lapatinib,inactive: -0.131
TSC2 (UniProt P49815),log2 fold change,sotrastaurin,inactive: -0.085
same,log2 fold change,Tubastatin A,inactive: 0.437
same,log2 fold change,[5],inactive: -0.603
same,log2 fold change,rucaparib,inactive: -0.097
same,log2 fold change,encorafenib,inactive: 0.042
same,log2 fold change,[3],inactive: 0.361
same,log2 fold change,filanesib,inactive: 0.198
same,log2 fold change,zotarolimus,inactive: -0.181
same,log2 fold change,idasanutlin,inactive: 0.017
same,log2 fold change,alisertib,inactive: 0.195
same,log2 fold change,[6],inactive: -0.039
same,log2 fold change,[4],inactive: 0.139
same,log2 fold change,lapatinib,inactive: 0.135
same,log2 fold change,pictilisib,inactive: 0.076
TRIO (UniProt O75962),log2 fold change,sotrastaurin,inactive: -0.086
same,log2 fold change,Tubastatin A,inactive: -0.048
same,log2 fold change,[5],inactive: 0.323
same,log2 fold change,rucaparib,inactive: -0.116
same,log2 fold change,encorafenib,inactive: -0.097
same,log2 fold change,[3],inactive: -0.29
same,log2 fold change,filanesib,inactive: -0.044
same,log2 fold change,idasanutlin,inactive: -0.203
same,log2 fold change,alisertib,inactive: 0.015
same,log2 fold change,gefitinib,inactive: 0.042
same,log2 fold change,[4],inactive: 0.001
TRIM4 (UniProt Q9C037),log2 fold change,sotrastaurin,inactive: 0.024
same,log2 fold change,Tubastatin A,inactive: 0.097
same,log2 fold change,[5],active: 0.439
same,log2 fold change,defactinib,inactive: -0.029
same,log2 fold change,rucaparib,inactive: 0.031
same,log2 fold change,encorafenib,inactive: 0.04
same,log2 fold change,[2],inactive: -0.108
same,log2 fold change,[3],inactive: -0.066
same,log2 fold change,filanesib,inactive: 0.003
same,log2 fold change,zotarolimus,inactive: 0.056
same,log2 fold change,idasanutlin,inactive: -0.208
same,log2 fold change,alisertib,inactive: -0.088
same,log2 fold change,[6],inactive: 0.129
same,log2 fold change,gefitinib,inactive: -0.155
same,log2 fold change,[4],inactive: -0.137
same,log2 fold change,lapatinib,inactive: -0.011
same,log2 fold change,pictilisib,inactive: 0.202
TPD52 isoform 3 (UniProt P55327),log2 fold change,saracatinib,inactive: 0.108
same,log2 fold change,[1],inactive: 0.008
TRIM33 isoform 2 (UniProt Q9UPN9),log2 fold change,sotrastaurin,inactive: -0.017
same,log2 fold change,filanesib,inactive: -0.225
same,log2 fold change,alisertib,inactive: 0.327
same,log2 fold change,gefitinib,inactive: -0.143
same,log2 fold change,[4],inactive: 0.075
TRMT5 (UniProt Q32P41),log2 fold change,Tubastatin A,inactive: 0.066
same,log2 fold change,[5],inactive: -0.125
same,log2 fold change,defactinib,inactive: -0.16
same,log2 fold change,rucaparib,inactive: 0.191
same,log2 fold change,encorafenib,inactive: 0.087
same,log2 fold change,[2],inactive: -0.234
same,log2 fold change,[3],inactive: -0.072
same,log2 fold change,idasanutlin,inactive: 0.06
same,log2 fold change,gefitinib,inactive: 0.191
same,log2 fold change,pictilisib,inactive: 0.077
TPRG1L (UniProt Q5T0D9),log2 fold change,sotrastaurin,inactive: -0.049
same,log2 fold change,Tubastatin A,inactive: 0.121
same,log2 fold change,[5],inactive: 0.052
same,log2 fold change,rucaparib,inactive: 0.014
same,log2 fold change,encorafenib,inactive: -0.047
same,log2 fold change,filanesib,inactive: -0.152
same,log2 fold change,alisertib,inactive: 0.202
same,log2 fold change,[6],inactive: -0.326
same,log2 fold change,gefitinib,inactive: -0.197
same,log2 fold change,[4],inactive: -0.162
same,log2 fold change,lapatinib,inactive: 0.118
TPD52L2 isoform 3 (UniProt O43399),log2 fold change,Tubastatin A,inactive: -0.093
same,log2 fold change,defactinib,inactive: 0.034
same,log2 fold change,[2],inactive: -0.098
same,log2 fold change,idasanutlin,inactive: -0.375
same,log2 fold change,alisertib,inactive: 0.05
same,log2 fold change,gefitinib,inactive: -0.153
same,log2 fold change,[4],inactive: -0.202
same,log2 fold change,pictilisib,inactive: 0.499
TRIM27 (UniProt P14373),log2 fold change,idasanutlin,inactive: 0.003
same,log2 fold change,pictilisib,inactive: 0.019
TROAP (UniProt Q12815),log2 fold change,pictilisib,inactive: -0.062

# For convenience, some entries already given.
target,measurement,setting,value
TPD52L2 isoform 3 (UniProt O43399),log2 fold change,alisertib,inactive: 0.05
same,log2 fold change,gefitinib,inactive: -0.153
same,log2 fold change,[4],inactive: -0.202
same,log2 fold change,pictilisib,inactive: 0.499
TRIM27 (UniProt P14373),log2 fold change,idasanutlin,inactive: 0.003
same,log2 fold change,pictilisib,inactive: 0.019

# Exported with tabs: entries from further up
target	measurement	setting	value
TRIO (UniProt O75962)	log2 fold change	[3]	inactive: -0.29
same	log2 fold change	filanesib	inactive: -0.044
same	log2 fold change	idasanutlin	inactive: -0.203
